Our source for the binding values is paper PMC4380928.

Amino acid sequences for entries named in this document (tags omitted). A change or cut given only in a name is not applied to a line headed by its entry.
UniProt O60636: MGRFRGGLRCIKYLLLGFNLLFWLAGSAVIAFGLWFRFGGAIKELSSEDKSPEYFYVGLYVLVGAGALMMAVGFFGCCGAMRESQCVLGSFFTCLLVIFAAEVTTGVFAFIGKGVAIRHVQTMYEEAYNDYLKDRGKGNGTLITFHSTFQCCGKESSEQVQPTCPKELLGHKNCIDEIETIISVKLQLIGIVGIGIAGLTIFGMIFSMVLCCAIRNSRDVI
UniProt P35568: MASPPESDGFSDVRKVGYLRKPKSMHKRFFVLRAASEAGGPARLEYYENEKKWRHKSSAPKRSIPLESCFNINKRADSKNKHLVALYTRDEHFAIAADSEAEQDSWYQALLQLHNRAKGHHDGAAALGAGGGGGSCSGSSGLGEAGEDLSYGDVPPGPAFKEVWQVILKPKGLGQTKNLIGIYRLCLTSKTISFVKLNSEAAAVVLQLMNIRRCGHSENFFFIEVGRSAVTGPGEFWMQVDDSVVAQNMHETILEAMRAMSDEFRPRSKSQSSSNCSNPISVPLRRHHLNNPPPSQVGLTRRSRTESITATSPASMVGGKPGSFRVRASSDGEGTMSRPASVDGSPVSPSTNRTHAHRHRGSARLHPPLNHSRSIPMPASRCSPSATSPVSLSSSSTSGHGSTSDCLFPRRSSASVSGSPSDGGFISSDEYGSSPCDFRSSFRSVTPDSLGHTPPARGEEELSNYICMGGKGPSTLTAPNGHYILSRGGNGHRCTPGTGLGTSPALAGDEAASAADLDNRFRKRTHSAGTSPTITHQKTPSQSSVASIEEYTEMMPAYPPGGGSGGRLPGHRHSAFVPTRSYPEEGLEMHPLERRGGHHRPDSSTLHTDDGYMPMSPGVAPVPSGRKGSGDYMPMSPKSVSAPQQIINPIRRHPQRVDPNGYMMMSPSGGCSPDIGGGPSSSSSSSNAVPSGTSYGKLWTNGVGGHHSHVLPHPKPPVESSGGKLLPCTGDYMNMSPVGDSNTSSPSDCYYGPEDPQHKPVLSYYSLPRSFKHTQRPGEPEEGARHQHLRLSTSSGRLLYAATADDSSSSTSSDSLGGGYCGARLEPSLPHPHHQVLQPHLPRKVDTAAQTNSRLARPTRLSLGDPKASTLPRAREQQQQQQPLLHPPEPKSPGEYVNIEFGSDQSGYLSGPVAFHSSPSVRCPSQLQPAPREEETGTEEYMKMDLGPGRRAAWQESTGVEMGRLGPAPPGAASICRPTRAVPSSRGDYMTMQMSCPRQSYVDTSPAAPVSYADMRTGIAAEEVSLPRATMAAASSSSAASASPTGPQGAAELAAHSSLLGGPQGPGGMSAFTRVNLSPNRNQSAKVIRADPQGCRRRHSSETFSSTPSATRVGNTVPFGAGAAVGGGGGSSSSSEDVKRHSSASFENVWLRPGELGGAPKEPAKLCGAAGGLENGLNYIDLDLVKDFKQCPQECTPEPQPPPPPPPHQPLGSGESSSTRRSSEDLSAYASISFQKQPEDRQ

The target of experiment [1] is T1, TSPAN2 15-mer peptide centered on Y13, phosphorylated version (human) (UniProt O60636).
T1 sequence (peptide, phosphorylated version (phospho-tyrosine)): GGLRCIKYLLLGFNL
The experiment can be described thus: peptide or protein array; PepStar peptide microarray (JPT) with phosphorylated and non-phosphorylated 15-mers, probed with serial dilutions of purified GST fusion proteins; detected with anti-GST-DyLight649 or primary and secondary antibodies; both purified.

The target in experiment [2] is T2, TSPAN2 15-mer peptide centered on Y60, phosphorylated version (human) (UniProt O60636).
T2 sequence (peptide, phosphorylated version (phospho-tyrosine)): EYFYVGLYVLVGAGA
Described as above.

Experiment [3] addresses T3, TSPAN2 15-mer peptide centered on Y56, phosphorylated version (human) (UniProt O60636).
T3 sequence (peptide, phosphorylated version (phospho-tyrosine)): DKSPEYFYVGLYVLV
Described as above.

The target of experiment [4] is T4, TSPAN2 15-mer peptide centered on Y131, phosphorylated version (human) (UniProt O60636).
T4 sequence (peptide, phosphorylated version (phospho-tyrosine)): YEEAYNDYLKDRGKG
The description is as above.

The target of experiment [5] is T5, TSPAN2 15-mer peptide centered on Y54, phosphorylated version (human) (UniProt O60636).
T5 sequence (peptide, phosphorylated version (phospho-tyrosine)): SEDKSPEYFYVGLYV
The description is as above.

The target in experiment [6] is T6, TSPAN2 15-mer peptide centered on Y128, phosphorylated version (human) (UniProt O60636).
T6 sequence (peptide, phosphorylated version (phospho-tyrosine)): QTMYEEAYNDYLKDR
The description is as above.

For experiment [7], the target named is PIK3R3 (p55γ regulatory subunit of PI3 kinase), two-hybrid bait (human) (UniProt Q92569). Put plainly: two-hybrid; pairwise pY-Y2H with active FYN kinase co-expressed; growth on selective medium without histidine and uracil (SD5), β-galactosidase assay.
For experiment [8] the target is unchanged. Put plainly: condition: only in the absence of active FYN kinase; two-hybrid; the same pairwise Y2H without active kinase: no FYN, or kinase-inactive FYN mutant (Fyn-KD, K299M).

Results are given in words; binding and its absence hold for the method and conditions named. Some binding calls cover weakened binding; strength is not graded here.

As to “GST-PIK3R3 (FL, aa 1-461) (from UniProt Q92569 1-461)”, the binding entry in experiment [1], in experiment [2], in experiment [3], in experiment [4], in experiment [5] and in experiment [6] was “no binding” in each case.
Regarding “IRS1, two-hybrid prey (from UniProt P35568 1-1242)”, the binding result is recorded as “binds” in experiment [7] and “no binding” in experiment [8].
